Experimental data: the supplement of paper PMC10849652
The list shows a part of the results.

Protein sequences, listed by entry. Tags and fused reporters are not part of them. Lines headed by an entry give the natural chain unless they say otherwise; changes in a name come on top.
UniProt P54652, whole entry, looked up: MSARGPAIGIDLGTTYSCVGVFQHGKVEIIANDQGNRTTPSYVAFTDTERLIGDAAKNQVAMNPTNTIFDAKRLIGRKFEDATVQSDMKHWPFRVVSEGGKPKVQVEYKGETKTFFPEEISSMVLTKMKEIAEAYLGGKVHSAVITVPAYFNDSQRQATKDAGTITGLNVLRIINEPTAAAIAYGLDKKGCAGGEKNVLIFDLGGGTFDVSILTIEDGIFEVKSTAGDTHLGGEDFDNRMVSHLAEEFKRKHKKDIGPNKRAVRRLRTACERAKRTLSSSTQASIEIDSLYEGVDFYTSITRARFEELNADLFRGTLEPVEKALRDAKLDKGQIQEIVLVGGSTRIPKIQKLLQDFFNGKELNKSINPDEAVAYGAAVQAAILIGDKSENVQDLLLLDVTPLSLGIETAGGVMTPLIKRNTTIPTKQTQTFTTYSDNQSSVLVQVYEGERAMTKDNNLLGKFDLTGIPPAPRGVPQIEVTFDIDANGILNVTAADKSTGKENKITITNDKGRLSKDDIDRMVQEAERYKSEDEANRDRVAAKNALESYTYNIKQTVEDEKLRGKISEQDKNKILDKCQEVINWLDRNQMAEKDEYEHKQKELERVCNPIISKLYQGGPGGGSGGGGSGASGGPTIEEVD
UniProt Q9Y5Z4: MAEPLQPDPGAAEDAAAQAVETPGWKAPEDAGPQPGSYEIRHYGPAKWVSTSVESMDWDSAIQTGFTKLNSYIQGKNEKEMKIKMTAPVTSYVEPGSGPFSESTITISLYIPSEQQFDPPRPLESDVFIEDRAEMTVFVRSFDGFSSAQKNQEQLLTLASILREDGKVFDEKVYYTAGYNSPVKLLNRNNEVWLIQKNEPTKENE
UniProt Q86YM7: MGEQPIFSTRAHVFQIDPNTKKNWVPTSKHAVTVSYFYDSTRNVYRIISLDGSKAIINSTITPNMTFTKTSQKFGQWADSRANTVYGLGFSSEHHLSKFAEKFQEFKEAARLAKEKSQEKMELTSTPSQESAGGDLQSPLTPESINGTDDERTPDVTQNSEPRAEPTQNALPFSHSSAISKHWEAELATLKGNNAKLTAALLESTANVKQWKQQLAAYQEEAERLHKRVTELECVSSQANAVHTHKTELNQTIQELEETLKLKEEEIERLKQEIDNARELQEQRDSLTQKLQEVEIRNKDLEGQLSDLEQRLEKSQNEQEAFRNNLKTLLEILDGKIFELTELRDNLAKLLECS
UniProt Q9ULT8: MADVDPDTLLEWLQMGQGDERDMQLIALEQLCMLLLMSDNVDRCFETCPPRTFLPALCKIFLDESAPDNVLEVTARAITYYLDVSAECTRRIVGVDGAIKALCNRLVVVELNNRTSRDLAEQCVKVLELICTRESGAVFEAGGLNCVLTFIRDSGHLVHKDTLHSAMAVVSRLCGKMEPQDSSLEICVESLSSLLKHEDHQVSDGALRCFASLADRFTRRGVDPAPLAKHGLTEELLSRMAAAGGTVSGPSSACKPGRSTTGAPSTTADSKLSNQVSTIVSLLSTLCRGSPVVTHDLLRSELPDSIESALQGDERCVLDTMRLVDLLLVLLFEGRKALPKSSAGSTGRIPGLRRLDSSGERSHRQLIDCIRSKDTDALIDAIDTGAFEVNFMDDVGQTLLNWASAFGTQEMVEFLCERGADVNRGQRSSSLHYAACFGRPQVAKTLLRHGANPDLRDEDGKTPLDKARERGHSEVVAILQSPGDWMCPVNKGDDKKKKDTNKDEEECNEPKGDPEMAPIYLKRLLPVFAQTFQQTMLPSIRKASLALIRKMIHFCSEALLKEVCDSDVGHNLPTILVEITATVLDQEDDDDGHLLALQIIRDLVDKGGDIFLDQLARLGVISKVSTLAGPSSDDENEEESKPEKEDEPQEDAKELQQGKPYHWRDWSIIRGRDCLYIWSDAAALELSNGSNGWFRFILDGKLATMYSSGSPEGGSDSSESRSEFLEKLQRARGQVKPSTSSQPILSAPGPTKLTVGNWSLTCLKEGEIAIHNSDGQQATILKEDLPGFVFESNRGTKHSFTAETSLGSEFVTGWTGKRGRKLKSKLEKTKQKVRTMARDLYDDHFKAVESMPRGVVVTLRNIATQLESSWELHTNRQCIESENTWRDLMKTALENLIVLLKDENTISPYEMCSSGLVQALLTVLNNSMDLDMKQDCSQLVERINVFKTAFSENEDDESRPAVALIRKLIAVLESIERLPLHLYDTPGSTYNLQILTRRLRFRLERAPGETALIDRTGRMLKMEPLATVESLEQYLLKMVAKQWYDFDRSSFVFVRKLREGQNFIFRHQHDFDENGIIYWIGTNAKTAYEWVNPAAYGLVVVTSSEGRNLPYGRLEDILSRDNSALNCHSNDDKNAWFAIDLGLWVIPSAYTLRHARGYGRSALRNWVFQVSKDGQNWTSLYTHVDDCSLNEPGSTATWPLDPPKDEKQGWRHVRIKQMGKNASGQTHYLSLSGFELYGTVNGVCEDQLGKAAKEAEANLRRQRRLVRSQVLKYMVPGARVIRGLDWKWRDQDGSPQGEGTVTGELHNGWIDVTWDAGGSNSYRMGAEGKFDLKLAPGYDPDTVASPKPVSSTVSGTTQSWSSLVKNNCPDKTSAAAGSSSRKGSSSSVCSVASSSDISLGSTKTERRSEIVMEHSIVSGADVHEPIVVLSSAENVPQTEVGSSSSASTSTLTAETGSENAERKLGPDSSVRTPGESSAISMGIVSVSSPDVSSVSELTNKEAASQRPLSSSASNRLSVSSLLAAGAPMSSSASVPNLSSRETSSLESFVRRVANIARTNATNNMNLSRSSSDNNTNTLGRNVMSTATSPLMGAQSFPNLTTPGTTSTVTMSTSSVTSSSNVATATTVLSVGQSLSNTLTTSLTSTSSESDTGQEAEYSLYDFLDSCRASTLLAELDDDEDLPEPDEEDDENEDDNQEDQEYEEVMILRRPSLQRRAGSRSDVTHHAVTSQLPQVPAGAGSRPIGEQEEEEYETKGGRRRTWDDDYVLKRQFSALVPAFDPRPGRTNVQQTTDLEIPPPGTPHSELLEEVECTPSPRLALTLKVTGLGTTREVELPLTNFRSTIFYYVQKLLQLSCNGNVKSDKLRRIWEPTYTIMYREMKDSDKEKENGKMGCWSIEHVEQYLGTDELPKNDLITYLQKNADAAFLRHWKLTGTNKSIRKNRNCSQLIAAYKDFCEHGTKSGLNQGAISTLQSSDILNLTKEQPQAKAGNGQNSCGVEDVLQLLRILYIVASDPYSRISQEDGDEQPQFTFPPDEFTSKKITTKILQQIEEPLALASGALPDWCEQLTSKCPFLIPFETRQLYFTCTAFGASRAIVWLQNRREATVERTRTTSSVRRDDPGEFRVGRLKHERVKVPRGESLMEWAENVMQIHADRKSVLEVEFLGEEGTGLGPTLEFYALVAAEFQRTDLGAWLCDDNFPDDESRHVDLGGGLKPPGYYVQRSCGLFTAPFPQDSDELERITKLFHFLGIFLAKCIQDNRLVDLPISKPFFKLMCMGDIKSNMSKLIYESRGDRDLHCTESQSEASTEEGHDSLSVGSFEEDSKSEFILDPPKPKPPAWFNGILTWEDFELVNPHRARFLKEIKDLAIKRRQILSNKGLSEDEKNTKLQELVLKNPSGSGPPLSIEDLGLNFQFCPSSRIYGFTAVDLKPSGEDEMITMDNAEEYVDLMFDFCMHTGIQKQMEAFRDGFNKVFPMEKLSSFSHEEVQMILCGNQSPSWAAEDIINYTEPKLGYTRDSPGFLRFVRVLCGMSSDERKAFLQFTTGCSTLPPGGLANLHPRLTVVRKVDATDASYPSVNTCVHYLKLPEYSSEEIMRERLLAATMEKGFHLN
UniProt Q53T59: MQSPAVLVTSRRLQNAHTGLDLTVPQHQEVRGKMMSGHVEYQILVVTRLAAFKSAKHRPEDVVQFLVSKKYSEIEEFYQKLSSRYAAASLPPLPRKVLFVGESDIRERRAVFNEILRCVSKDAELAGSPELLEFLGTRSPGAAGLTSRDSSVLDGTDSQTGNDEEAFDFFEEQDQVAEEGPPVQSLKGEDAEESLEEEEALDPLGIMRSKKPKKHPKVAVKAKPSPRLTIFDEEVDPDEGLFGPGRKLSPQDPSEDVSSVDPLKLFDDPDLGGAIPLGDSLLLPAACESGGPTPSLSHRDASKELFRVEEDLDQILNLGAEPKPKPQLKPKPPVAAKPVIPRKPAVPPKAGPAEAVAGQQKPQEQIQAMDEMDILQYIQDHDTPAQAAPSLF
UniProt Q03014: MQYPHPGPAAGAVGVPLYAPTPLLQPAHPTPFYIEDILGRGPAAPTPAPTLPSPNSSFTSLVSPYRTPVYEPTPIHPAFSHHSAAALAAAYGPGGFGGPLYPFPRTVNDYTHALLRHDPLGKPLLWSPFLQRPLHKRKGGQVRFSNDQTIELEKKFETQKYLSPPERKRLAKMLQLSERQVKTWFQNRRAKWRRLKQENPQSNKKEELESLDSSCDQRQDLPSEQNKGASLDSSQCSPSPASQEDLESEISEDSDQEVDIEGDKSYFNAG
UniProt P06865: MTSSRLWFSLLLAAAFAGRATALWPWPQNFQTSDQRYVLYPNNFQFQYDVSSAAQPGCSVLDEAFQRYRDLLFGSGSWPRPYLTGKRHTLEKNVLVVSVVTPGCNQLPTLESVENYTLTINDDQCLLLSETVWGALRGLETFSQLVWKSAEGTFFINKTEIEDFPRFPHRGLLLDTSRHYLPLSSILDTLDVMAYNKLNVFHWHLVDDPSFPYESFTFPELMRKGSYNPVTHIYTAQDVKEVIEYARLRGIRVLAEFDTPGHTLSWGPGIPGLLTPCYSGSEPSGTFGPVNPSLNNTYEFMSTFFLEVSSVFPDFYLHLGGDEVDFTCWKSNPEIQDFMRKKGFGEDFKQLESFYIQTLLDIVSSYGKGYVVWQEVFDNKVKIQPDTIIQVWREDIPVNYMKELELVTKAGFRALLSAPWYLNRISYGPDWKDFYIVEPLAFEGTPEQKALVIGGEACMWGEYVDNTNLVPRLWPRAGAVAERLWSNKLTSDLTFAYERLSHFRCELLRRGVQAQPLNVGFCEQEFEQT
UniProt P54198, whole entry, looked up: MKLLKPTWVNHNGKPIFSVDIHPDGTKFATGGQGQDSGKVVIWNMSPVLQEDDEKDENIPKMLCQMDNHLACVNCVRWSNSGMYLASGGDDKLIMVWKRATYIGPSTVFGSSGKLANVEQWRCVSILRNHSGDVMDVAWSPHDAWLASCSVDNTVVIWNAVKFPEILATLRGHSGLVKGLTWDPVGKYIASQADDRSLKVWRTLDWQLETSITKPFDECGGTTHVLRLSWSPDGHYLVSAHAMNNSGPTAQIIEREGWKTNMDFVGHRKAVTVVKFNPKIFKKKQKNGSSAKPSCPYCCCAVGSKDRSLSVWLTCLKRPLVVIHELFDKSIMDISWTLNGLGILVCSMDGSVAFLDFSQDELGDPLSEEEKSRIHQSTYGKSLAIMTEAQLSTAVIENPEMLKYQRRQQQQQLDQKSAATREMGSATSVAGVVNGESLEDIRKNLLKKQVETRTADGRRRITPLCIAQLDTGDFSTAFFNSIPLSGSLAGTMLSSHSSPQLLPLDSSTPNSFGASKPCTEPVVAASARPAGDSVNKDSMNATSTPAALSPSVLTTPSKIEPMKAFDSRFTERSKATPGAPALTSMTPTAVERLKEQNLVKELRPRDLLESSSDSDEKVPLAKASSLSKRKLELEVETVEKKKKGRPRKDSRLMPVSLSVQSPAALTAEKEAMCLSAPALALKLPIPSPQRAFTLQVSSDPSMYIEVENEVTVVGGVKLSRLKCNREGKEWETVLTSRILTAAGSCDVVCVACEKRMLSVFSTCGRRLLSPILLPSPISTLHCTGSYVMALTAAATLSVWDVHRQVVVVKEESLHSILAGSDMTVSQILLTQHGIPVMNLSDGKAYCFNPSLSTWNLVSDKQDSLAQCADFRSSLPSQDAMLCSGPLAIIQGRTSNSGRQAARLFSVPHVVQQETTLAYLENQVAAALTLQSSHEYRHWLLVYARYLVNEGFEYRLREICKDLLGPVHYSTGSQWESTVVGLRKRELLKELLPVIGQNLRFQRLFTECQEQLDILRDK
UniProt Q15651: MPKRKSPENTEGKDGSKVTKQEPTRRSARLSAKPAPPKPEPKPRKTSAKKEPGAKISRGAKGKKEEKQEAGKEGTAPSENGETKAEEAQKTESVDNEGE
UniProt P48723: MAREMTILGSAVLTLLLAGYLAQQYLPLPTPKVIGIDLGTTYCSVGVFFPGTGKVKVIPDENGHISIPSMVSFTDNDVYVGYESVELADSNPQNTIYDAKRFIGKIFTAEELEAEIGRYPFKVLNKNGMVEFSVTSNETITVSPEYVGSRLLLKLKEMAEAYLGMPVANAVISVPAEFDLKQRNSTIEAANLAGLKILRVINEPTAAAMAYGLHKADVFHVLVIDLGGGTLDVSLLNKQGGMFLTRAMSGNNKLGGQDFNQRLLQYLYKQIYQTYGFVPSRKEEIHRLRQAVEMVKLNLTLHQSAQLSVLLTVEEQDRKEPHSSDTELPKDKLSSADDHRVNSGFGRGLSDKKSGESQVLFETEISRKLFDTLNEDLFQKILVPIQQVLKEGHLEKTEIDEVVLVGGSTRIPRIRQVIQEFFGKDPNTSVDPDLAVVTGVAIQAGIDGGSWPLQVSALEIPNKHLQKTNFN

Assays:
Assay in all cases: log2 fold change, soluble protein after heating vs DMSO (PISA); higher = thermal stabilisation; K562 lysate, 10 uM; active = over 0.2 and 3.5 SD of the protein, either way, in both replicates (recomputed)
[1] = compound: C=CC(=O)N1CCC[C@@H](n2nc(-c3ccc(Oc4ccccc4)cc3)c3c(N)ncnc32)C1 [ibrutinib]
Summary of the method: (§1)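 Dounce homogenisation of K562 pellets in PBS pH 7.4 with 1 mM MgCl2 produced a crude extract, used at 1 mg/mL protein. Exposure to 10 μM compound lasted 30 min, and aliquots were then heated for 3 min across 48°C-58°C, pooled and brought to 0.5% NP-40 at 4°C. The supernatant after 21,000xg for 90 min was quantified by TMTpro 16plex LC-MS/MS with channel sums equalised. Duplicate values are given as log-two fold change in thermal stability relative to solvent controls.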

[2] = compound: CC(=O)c1cnc2ccc(-c3cc(Cl)c(O)c(Cl)c3)nc2c1N[C@H]1CC[C@H](CN(C)C)CC1
Summary of the method: as §1

[3] = compound: CC(C)(C)Cn1c(N)nc2ccc(-c3[nH]c(C(C)(C)C)nc3-c3ccc(F)cc3)nc21 [ralimetinib]
Summary of the method: as §1

[4] = compound: CC(C)(O)CC(=O)NCCn1ccc2ncnc(Nc3ccc(Oc4cccc(C(F)(F)F)c4)c(Cl)c3)c21
Summary of the method: as §1

[5] = compound: CC(C)C1=C2N=C(C=C(N2N=C1)NCC3=CC=CC=C3)NCCCCCCN
Summary of the method: as §1

[6] = compound: CC1=C(C(CC(=O)N1)C2=CC=C(C=C2)C(F)(F)F)C(=O)NC3=C(C=C4C(=C3)C=NN4)F
Summary of the method: as §1

[7] = compound: CC1=C(C2=C(C=C1)C(=O)C3=CC=CC=C3N2CCCN)C
Summary of the method: as §1

[8] = compound: CC1=C(C=C(C=C1)NC(=O)C2=CC(=CC=C2)C(C)(C)C#N)NC3=CC4=C(C=C3)N=CN(C4=O)C
Summary of the method: as §1

[9] = compound: CC1=C(C=C(C=C1)NC(=O)C2=CC(=CC=C2)N(C)C)NC(=O)C3=CC=C(C=C3)O
Summary of the method: as §1

[10] = compound: CC1=CC=C(C=C1)SC2=C3C=C(SC3=CN=C2)C(=O)N
Summary of the method: as §1

[11] = compound: CCCS(=O)(=O)Nc1ccc(F)c(C(=O)c2c[nH]c3ncc(-c4ccc(Cl)cc4)cc23)c1F [vemurafenib]
Summary of the method: as §1

[12] = compound: CCCS(=O)(=O)Nc1ccc(F)c(C(=O)c2c[nH]c3ncc(Cl)cc23)c1F
Summary of the method: as §1

[13] = compound: CCN(CCCOc1ccc2c(Nc3cc(CC(=O)Nc4cccc(F)c4)[nH]n3)ncnc2c1)CCOP(=O)(O)O [barasertib]
Summary of the method: as §1

[14] = compound: CC[C@@H]1C(=O)N(C)c2cnc(Nc3ccc(C(=O)NC4CCN(C)CC4)cc3OC)nc2N1C1CCCC1
Summary of the method: as §1

[15] = compound: CC[C@@H]1C(=O)N(C)c2cnc(Nc3ccc(C(=O)N[C@H]4CC[C@H](N5CCN(CC6CC6)CC5)CC4)cc3OC)nc2N1C(C)C [volasertib]
Summary of the method: as §1

[16] = compound: CCn1c(C(=O)N(C2CC2)C2CC2)cc2c3c(ncn3C)c(Nc3cc(C)n(C)n3)nc21
Summary of the method: as §1

[17] = compound: CCn1cc(-c2ccnc3[nH]c(-c4cccc(CN(C)C)c4)cc23)c(-c2ccc(NC(=O)N(C)C)cc2)n1
Summary of the method: as §1

[18] = compound: CN1CCC(CNc2ccc3ncc(-c4cccc(OC(F)(F)F)c4)n3n2)CC1
Summary of the method: as §1

[19] = compound: CN1CCN(CCOc2cc(OC3CCOCC3)c3c(Nc4c(Cl)ccc5c4OCO5)ncnc3c2)CC1 [saracatinib]
Summary of the method: as §1

[20] = compound: CN1CCN(c2nc(C3=C(c4c[nH]c5ccccc45)C(=O)NC3=O)c3ccccc3n2)CC1 [sotrastaurin]
Summary of the method: as §1

Measured: log2 fold change

HSPA2 (UniProt P54652)
inactive: [1] 0.036 | [2] 0.02 | [3] 0.019 | [4] -0.118 | [5] -0.02 | [6] -0.006 | [7] 0.004 | [8] 0.022 | [9] 0.065 | [10] -0.11 | [11] 0.122 | [12] -0.027 | [13] -0.163 | [14] -0.012 | [15] 0 | [16] -0.087 | [17] -0.257 | [18] 0.281 | [19] 0.011 | [20] 0.062

HEBP2 (UniProt Q9Y5Z4)
inactive: [1] 0.007 | [2] -0.017 | [3] 0.004 | [4] -0.029 | [5] -0.03 | [6] -0.051 | [7] -0.003 | [8] 0.012 | [9] -0.021 | [10] -0.004 | [11] -0.015 | [12] -0.025 | [13] 0.091 | [14] 0.038 | [15] 0.037 | [16] 0.001 | [17] -0.047 | [18] 0.025 | [19] -0.016 | [20] -0.014

HOMER1 (UniProt Q86YM7)
inactive: [1] -0.088 | [2] 0.04 | [3] -0.02 | [4] -0.063 | [5] 0 | [6] 0.049 | [7] -0.042 | [8] -0.066 | [9] -0.047 | [10] 0.047 | [11] -0.019 | [12] 0.021 | [13] 0.016 | [14] 0.025 | [15] -0.003 | [16] -0.021 | [17] 0.049 | [18] -0.038 | [19] 0.012 | [20] 0.016

HNRNPR (UniProt O43390)
inactive: [1] -0.042 | [2] -0.288 | [3] 0.006 | [4] 0.052 | [5] -0.12 | [6] 0.052 | [7] -0.004 | [8] 0.018 | [9] 0.008 | [10] 0.006 | [11] -0.03 | [12] 0.078 | [13] -0.043 | [14] -0.082 | [15] -0.027 | [16] -0.021 | [17] -0.214 | [18] 0.062 | [19] 0.001 | [20] 0.081

Quoted from the entries so far (2 entries):
HSPA2 (UniProt P54652)
inactive: [1] 0.036 | [2] 0.02 | [3] 0.019 | [4] -0.118 | [5] -0.02 | [6] -0.006 | [7] 0.004 | [8] 0.022 | [9] 0.065 | [10] -0.11 | [11] 0.122 | [12] -0.027 | [13] -0.163 | [14] -0.012 | [15] 0 | [16] -0.087 | [17] -0.257 | [18] 0.281 | [19] 0.011 | [20] 0.062

HEBP2 (UniProt Q9Y5Z4)
inactive: [1] 0.007 | [2] -0.017 | [3] 0.004 | [4] -0.029 | [5] -0.03 | [6] -0.051 | [7] -0.003 | [8] 0.012 | [9] -0.021 | [10] -0.004 | [11] -0.015 | [12] -0.025 | [13] 0.091 | [14] 0.038 | [15] 0.037 | [16] 0.001 | [17] -0.047 | [18] 0.025 | [19] -0.016 | [20] -0.014

Continued:

HECTD1 (UniProt Q9ULT8)
inactive: [1] -0.034 | [2] -0.012 | [3] -0.027 | [4] 0 | [5] -0.004 | [6] -0.007 | [7] -0.037 | [8] 0.004 | [9] 0.019 | [10] -0.016 | [11] -0.003 | [12] 0.018 | [13] 0.054 | [14] 0.027 | [15] -0.035 | [16] 0.009 | [17] -0.039 | [18] -0.011 | [19] 0.001 | [20] 0.016

HSDL2 (UniProt Q6YN16)
inactive: [1] 0.002 | [2] -0.007 | [3] -0.032 | [4] -0.03 | [5] -0.015 | [6] 0.007 | [7] -0.038 | [8] 0.01 | [9] -0.015 | [10] -0.017 | [11] 0.041 | [12] 0.009 | [13] 0.017 | [14] -0.007 | [15] -0.043 | [16] -0.06 | [17] -0.12 | [18] 0.074 | [19] -0.02 | [20] -0.019

HS1BP3 (UniProt Q53T59)
inactive: [1] -0.01 | [2] 0.001 | [3] 0.017 | [4] 0 | [5] -0.013 | [6] 0.005 | [7] 0.056 | [8] 0.016 | [9] -0.005 | [10] -0.013 | [11] -0.003 | [12] -0.012 | [13] 0.056 | [14] 0.029 | [15] -0.002 | [16] 0.014 | [17] -0.238 | [18] 0.092 | [19] 0.082 | [20] 0.013

HHEX (UniProt Q03014)
inactive: [1] -0.079 | [2] 0.016 | [3] -0.076 | [4] -0.042 | [5] -0.068 | [6] 0.058 | [7] 0.016 | [8] -0.204 | [9] 0.027 | [10] 0.142 | [11] -0.034 | [12] -0.026 | [13] 0.21 | [14] 0.287 | [15] -0.003 | [16] 0.111 | [17] 0.074 | [18] 0.028 | [19] 0.054 | [20] -0.024

HEXA (UniProt P06865)
inactive: [1] -0.006 | [2] -0.006 | [3] -0.013 | [4] -0.014 | [5] 0.007 | [6] 0.012 | [7] 0.001 | [8] 0.004 | [9] -0.011 | [10] 0.001 | [11] -0.015 | [12] 0.001 | [13] 0.008 | [14] -0.004 | [15] 0.003 | [16] -0.006 | [17] -0.031 | [18] 0.024 | [19] -0.009 | [20] 0.008

HIRA (UniProt P54198)
inactive: [2] 0.036 | [3] -0.036 | [4] 0.039 | [5] 0.06 | [6] 0.18 | [7] -0.004 | [8] -0.031 | [9] 0.053 | [10] 0.023 | [11] 0.001 | [12] 0.017 | [14] 0.042 | [15] 0.008 | [16] 0 | [17] -0.155 | [18] -0.007 | [19] 0.066 | [20] 0.085

HMGN3 (UniProt Q15651)
inactive: [1] 0.014 | [2] -0.009 | [3] 0.037 | [4] -0.05 | [5] 0.027 | [6] -0.006 | [7] 0.053 | [8] 0.024 | [9] 0.089 | [10] -0.066 | [12] -0.028 | [13] -0.175 | [15] 0.034 | [16] -0.059 | [17] -0.071 | [18] 0.102 | [19] -0.044 | [20] 0.038

HSPA13 (UniProt P48723)
inactive: [1] 0.007 | [2] 0.009 | [3] 0.041 | [4] 0.003 | [5] -0.039 | [6] 0.028 | [7] 0.007 | [8] -0.027 | [9] 0.03 | [10] 0.013 | [11] -0.026 | [12] 0.031 | [13] -0.018 | [14] -0.025 | [15] -0.031 | [16] 0.043 | [17] 0 | [18] -0.046 | [19] 0.015 | [20] -0.002
